Hit rate of the full screen: of about 140,000 compounds, about 4,300 (3.1%) were called active. This list was built around the results that the source calls inconclusive (neither active nor inactive); the mix of calls is not that of the screen.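 How the source made its calls: active means readout at or below -70, meaning at least 70% loss of cells showing the perinucleolar compartment, a nuclear body marking cancer cells; inconclusive means readout between -30 and a set limit; inactive means the rest.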
Assay: High Content Assay for Compounds that inhibit the Assembly of the Perinucleolar Compartment;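 further: plate controls were DMSO wells for no effect and camptothecin positive control wells for full effect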
Settings: PC3M PTB-GFP, PNC prevalence imaging, 16 h; at 10 µM; hits give low values
How it was run: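 Read-out is percentage of cells bearing a perinucleolar compartment, from automated 20x imaging of fixed, Hoechst-stained PC3M PTB-GFP cells. Cells were seeded 4 h, then exposed 16 h to compound (23 nl of library stock) in duplicate plates.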

Row | Structure (SMILES) | activity change (PNC), negative = inhibition
1 | CC(C)c1nnc(NC(=O)C2CCCCC2)s1 | active: -118%
2 | Cc1ccc(NC(=O)c2ccccc2F)nc1 | inconclusive: -34.9%
3 | CC(C)n1c(CNC(=O)c2ccccc2)nc2ccccc21 | inconclusive: -53.9%
4 | CCCN(CCO)CCCc1ccccc1 | inconclusive: -59.2%
5 | CCn1c2ccccc2c2nnc(SCC(=O)OCN3C(=O)c4ccccc4C3=O)nc21 | inconclusive: -50.2%
6 | O=C(O)CCC(=O)N1CCN(c2cccc(Cl)c2)CC1 | inactive: 0.272%
7 | COc1ccccc1C1C(C(=O)c2cc3ccccc3o2)=C(O)C(=O)N1CCN1CCOCC1 (stereo unspecified) | inactive: 20.8%
8 | COC(=O)[C@H](C)NC(=O)NC1CCN(Cc2ccccc2)CC1 | inactive: -9.14%
9 | O=C1c2cccnc2C(Nc2ccc(S(=O)(=O)N3CCCCCC3)cc2)N1Cc1ccccc1 (stereo unspecified) | inconclusive: -37%
10 | O=C(CCCc1ccccc1)NCc1cn2ccsc2n1 | inactive: 22.6%
11 | O=C(Nc1nc(COc2ccccc2)cs1)C12CC3CC(CC(C3)C1)C2 | inactive: -19.9%
12 | O=C(OCCN1C(=O)c2cccc3c(N4CCOCC4)ccc(c23)C1=O)c1ccc(Cl)cc1Cl | active: -98.1%
13 | O=C(/C=C/c1ccc(N2CCCCC2)c([N+](=O)[O-])c1)c1ccc(S(=O)(=O)N2CCCC2)cc1 | inactive: 31.5%
14 | CC1C/C(=N/O)C(C)CN1 (stereo unspecified) | inconclusive: -31.1%
15 | COC(=O)c1sccc1N/N=C/c1cccc(OC)c1O | active: -116%
16 | NC(=O)c1ccsc1NC(=O)COC(=O)COc1ccccc1F | inconclusive: -62.4%
17 | COc1cccc(Nc2n[nH]c(=S)s2)c1 | inconclusive: -70.5%
18 | N#Cc1c(Sc2ncc(C(F)(F)F)cc2Cl)nsc1C/C=N\OCc1c(F)cccc1Cl | inactive: 36.6%
19 | CSCCC(NS(=O)(=O)c1ccc2c(c1)oc(=O)n2C)C(=O)NC1CCC(C)CC1 (stereo unspecified) | inconclusive: -56.2%
20 | COc1ccc(-n2nnnc2SCC(=O)c2ccc3c(c2)OCCO3)c(OC)c1 | inconclusive: -39.6%
21 | COC(=O)c1ccc(C)c(NC(=O)C2COc3ccccc3O2)c1 (stereo unspecified) | inconclusive: -34.3%
22 | Cc1ccc2c(c1)C(=O)c1ccccc1CS2=O (stereo unspecified) | inconclusive: -32.3%
23 | COC(=O)CC(NS(=O)(=O)c1cccs1)c1cccc2ccccc12 (stereo unspecified) | inconclusive: -54.9%
24 | O=C(CN1CCC(n2nnc3cc(C(F)(F)F)ccc32)CC1)NCc1cccs1 | inconclusive: -32.5%
25 | CCOC(=O)Cc1csc(NC(=O)CSc2ccc(Br)cc2)n1 | inactive: 34.9%
26 | COc1ccc(Cc2nnc(SCC(=O)NC(C)c3ccccc3)o2)cc1 (stereo unspecified) | inconclusive: -42.2%

Single entries from above.
Entry of COC(=O)c1ccc(C)c(NC(=O)C2COc3ccccc3O2)c1 (stereo unspecified) under activity change (PNC), negative = inhibition: inconclusive: -34.3%
Entry of O=C1c2cccnc2C(Nc2ccc(S(=O)(=O)N3CCCCCC3)cc2)N1Cc1ccccc1 (stereo unspecified) under activity change (PNC), negative = inhibition: inconclusive: -37%
